Values quoted from earlier work in patent EP0009325A1, “Erythritol cointaining anti-caries compositions” (PFIZER INC., priority 1978, dated 1980).

Details: at practical use levels; cited from earlier work

SMILES	sweetness relative to sucrose [%]
OC[C@@H](O)[C@@H](O)[C@H](O)[C@H](O)CO [mannitol]	50
OC[C@@H](O)[C@@H](O)[C@H](O)[C@@H](O)CO [sorbitol]	50
